Primary screen of a compound library

Chains of the proteins cited; added tags and fusions are not shown. Residues count along the entry.
UniProt A4I591, 1-473: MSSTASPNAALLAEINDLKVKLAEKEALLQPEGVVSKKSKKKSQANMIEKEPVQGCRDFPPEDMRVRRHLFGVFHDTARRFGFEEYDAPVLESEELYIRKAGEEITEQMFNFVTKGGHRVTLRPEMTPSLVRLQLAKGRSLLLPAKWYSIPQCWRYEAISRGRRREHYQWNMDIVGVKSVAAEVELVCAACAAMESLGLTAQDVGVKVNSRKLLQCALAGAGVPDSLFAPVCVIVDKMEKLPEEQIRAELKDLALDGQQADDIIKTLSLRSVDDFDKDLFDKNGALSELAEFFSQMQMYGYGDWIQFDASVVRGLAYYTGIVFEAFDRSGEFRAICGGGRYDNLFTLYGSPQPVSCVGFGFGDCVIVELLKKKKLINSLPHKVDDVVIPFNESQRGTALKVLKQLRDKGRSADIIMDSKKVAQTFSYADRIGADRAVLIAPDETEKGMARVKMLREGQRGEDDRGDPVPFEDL
UniProt P9WNZ1, whole entry: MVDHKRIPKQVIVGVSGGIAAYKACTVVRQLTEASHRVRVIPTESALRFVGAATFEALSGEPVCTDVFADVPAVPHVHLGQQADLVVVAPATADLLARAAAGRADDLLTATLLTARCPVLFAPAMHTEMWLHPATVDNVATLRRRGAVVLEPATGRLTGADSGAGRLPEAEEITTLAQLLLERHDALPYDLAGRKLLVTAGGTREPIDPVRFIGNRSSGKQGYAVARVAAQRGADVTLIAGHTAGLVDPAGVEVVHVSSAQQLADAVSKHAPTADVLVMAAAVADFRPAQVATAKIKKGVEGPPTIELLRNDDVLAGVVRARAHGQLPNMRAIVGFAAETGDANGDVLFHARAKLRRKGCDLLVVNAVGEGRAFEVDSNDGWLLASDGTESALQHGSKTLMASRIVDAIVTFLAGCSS

A: 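Histidine-tRNA ligase, Leishmania infantum (UniProt A4I591). Enzyme assay of histidyl-tRNA synthetase; the read-out is not stated. Compounds at 30 µM. The record gives no direction; compounds that gave an IC50 in retests scored well above the rest, so higher reads as stronger inhibition. The assay is labelled LdHisRS but filed under L. infantum. About 69,000 compounds were tested under these conditions; 0.6% (about 410) showed 50% or more at least once.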
B: 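Cell assay of Leishmania donovani living inside macrophages; the read-out is not stated. Tested at 30 µM. Higher reads as stronger inhibition (inferred: compounds with an IC50 in retests scored well above the rest). About 69,000 compounds were tested under these conditions; 1.5% (about 1,000) showed 50% or more at least once.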
C: 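Enzyme assay of CoaBC with a phosphate dye (Biomol Green) read at 650 nm. Target: Coenzyme A biosynthesis protein CoaBC, Mycobacterium tuberculosis (UniProt P9WNZ1). Compounds at 30 µM. Direction is inferred from only a few compounds that gave an IC50; most scored high, so higher reads as stronger inhibition. Most strong results did not repeat in a second test. Of about 67,000 compounds tested this way, about 40 (0.06%) reached 50% or more in at least one test.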

The filed quantity is “Percent Effect” (%).
The record does not define 0% and 100%; most values in the screen are far below 50% and negative numbers occur (in some assays of this library far below -100).
Compounds were drawn at random from those tested, without regard to their results.
Two or more numbers in one place are separate tests of the same structure; such repeats can differ widely.
A dash means the value is not listed here; it may have been measured.

Compound | A | B | C
CS(=O)(=O)N1CCC(NC(=O)COc2ccc(Br)cc2Cl)CC1 | 3.419 | 30.34 | -11.8
COc1ccc(-c2nnc(C(C)N3CCOC(C)(C)C3)o2)cc1 (configuration not stated) | 12.33 | 20 | -18.59
CC(c1ccc(F)cc1F)N1CCN(Cc2nccn2C)CC1 (configuration not stated) | 10.71 | 15.96 | 7.5
CCc1c(C)nn2c(O)cc(C3CCN(C(=O)c4cnn(C)c4)C3)nc12 (configuration not stated) | 6.993 | -13.89 | -0.7264
COc1cccc(CNC(C)c2ccc(-n3ccnc3)cc2)c1O (configuration not stated) | 25.53 | 5.725 | 0.4963
COc1cccc(SCC(=O)N2CCCC(N3CCCC3=O)C2)c1 (configuration not stated) | 21.51 | 35.95 | 1.229
CC(C)CN1Cc2nc(N3CCCC(C)C3)ncc2C1=O (configuration not stated) | 16.05 | -1.565 | 1.02
CNc1cc(C2CCCN2C(=O)CCc2ccccc2F)ccn1 (configuration not stated) | 11.27 | 0.7284 | 5.938
Cl.N#Cc1cccnc1OC1CCNCC1 | - | 11 | -
Cc1ccc(CN2CC[C@H]3CO[C@H](CN4CCN(C)CC4)[C@H]3C2)o1 | 14 | - | 1.724
CCOc1ccc(CC(=O)N(CCC(=O)OC)CC2CCCO2)cc1 (configuration not stated) | 1.667 | 16.66 | 6.699
c1csc(-c2cc(CN3CCN(c4nccs4)CC3)no2)c1 | 9.917 | 21.99 | 2.122
COc1ccccc1CN1C(=O)O[C@@H]2CN(CC3CC3)C[C@@H]21 | 10 | - | 6.21
CC(C)CN(CC(O)c1ccccc1)C(=O)NC(C)C (configuration not stated) | 10.2 | 2.522 | 4.132
Cc1nc(CNC(=O)CC2C(=O)NCCN2CCC(C)C)n[nH]1 (configuration not stated) | 21.88 | 29.83 | 6.291
Cc1nn(C)cc1-c1cncn1CCc1ccc2c(c1)OCCO2 | 10 | - | 1.456
Cc1cccc(CN2CCc3c(COCC(=O)N(C)C)nn(C)c3C2)n1.O=C(O)C(F)(F)F.O=C(O)C(F)(F)F | - | -21.73 | -
C=C(C)COc1cccc(CNC(CC(C)C)c2ncnn2C)c1 (configuration not stated) | 12 | -32.23 | -1.568
Cc1noc(C2CCC3(CCN(C(=O)c4ccn(C)n4)CC3)O2)n1 (configuration not stated) | 15.28 | 8.125 | 0.9877
O=C(CN(CC1CCC1)CC(F)(F)F)N1CCCC1 | 13.92 | 13.16 | 3.169
CCN(CC)C(=O)C1CCCN1C(=O)c1cccc(-n2cnnn2)c1 (configuration not stated) | 12.5 | 29.36 | 13.38
O=C1CCC2(CCCN(C(=O)c3cnccn3)CC2)N1 (configuration not stated) | 19.42 | -4.548 | 1.527
[H][C@@]12CN(C(=O)N(C)C)C[C@]1([H])C(=O)N(C)C21CCN(C(=O)NC(C)C)CC1 | - | 7.204 | -
CC(Cn1ccnc1)NC(=O)NCCc1ccccn1 (configuration not stated) | 4 | -12.68 | 2.394
Cc1cn2nc(N3CCN(Cc4nc(C(C)C)no4)CC3)sc2n1 | 4.348 | -3.917 | 0.1272
[H][C@]12CCN(S(=O)(=O)c3cccc(C)c3)[C@@]1([H])CC[C@@H](COC)O2 | - | 7.43 | -
Cc1ccsc1C(=O)N1CCCc2c(c(=O)n(C)n2C)C1 | 0.885 | 18.05 & 0.6453 | -1.895
N#Cc1ccc(S(=O)(=O)NC(=O)c2ccc3c(c2)COC3)cc1 | 14.29 | 9.629 | -0.1626
COC(=O)Cn1c(=O)cc(C(F)F)c2c(C)nn(CC(F)F)c21 | -1.724 | 51.48 | 4.388
CCc1cnc(CNc2cccc3c2CCN(S(=O)(=O)CC)C3)o1 | 6.593 | 36.95 | 0.3659
CCN(CC1CCCN(CCc2cccc(OC)c2)C1)C(=O)CN(C)C (configuration not stated) | 7.143 | 48.28 | -8.402
COc1c(CNCCC(=O)Nc2cccc(C)n2)c(C)nn1C | 5.172 | 24.31 | 0.6424
CCN(CCO)C[C@@H]1CN(C(=O)c2ccc(C)s2)C[C@@H]1CO | 14.52 | -18.66 | 6.349 & 28.98
O=C(NCCN1CCOCC1)NCc1cccnc1-n1cccn1 | 21.92 | 28.35 | 3.636
O=C([C@@H]1CCO[C@@H]2CCN(CC3CCOCC3)C[C@H]21)N1CCCO1 | 17.95 | - | 7.268
[H][C@@]12CCCO[C@]1([H])[C@H](N(C)Cc1ccco1)CN(C(=O)c1ccoc1C)C2 | - | 19.6 | -
O=C(Cc1ccsc1)NCC1Cn2nnc(-c3ccoc3)c2CO1 (configuration not stated) | -37.93 | 15.88 | -
COCCO[C@H]1CCN(Cc2ccsc2)[C@H]1Cc1cccnc1.O=C(O)C(F)(F)F.O=C(O)C(F)(F)F | - | -1.276 | -
COc1ccc(C2CCCCCN2Cc2cn(C)nc2C)cc1 (configuration not stated) | 26.97 | -25.18 | 4.212
Cc1ccc(S(=O)(=O)NCc2cnn(C)c2)c(F)c1 | 8.511 | -32.92 | 2.978
CCc1nc(C(=O)N2CCOCC2)nn1-c1ccccc1Cl | 9.649 | 18.64 | 5.867
CCNC(c1ccc(Cl)cc1)c1cccnc1 (configuration not stated) | -3.509 | 26.48 | 8.323
COc1cc(CNC(=O)c2c(C)noc2C)ccn1 | 7.143 | 30.04 | 4.689
COc1cccc(OCC2CCCN(C(=O)CCn3ccnc3)C2)c1 (configuration not stated) | 20.8 | 11.84 | 0.9756
CCOC(=O)C1(Cc2ccc(Cl)cc2)CCN(Cc2ncc[nH]2)CC1 | 17.5 | 14.14 | 1.615
COCCN1C[C@@H]2CN(c3cnccn3)C[C@@H]2C1=O | 16 | - | 1.724
CC(C)S(=O)(=O)NCC1CCCN(C(=O)c2cccnc2)C1 (configuration not stated) | 17.31 | 21.84 | -7.889
CCCN1C(=O)CC(N2CCN(c3ccc(F)cc3)CC2)C1=O (configuration not stated) | 17.14 | -14.51 | -3.104
CC1(C)CNC(=O)c2nc(-c3ccccc3)[nH]c2C1 | 28.57 | -6.161 | 10.77
Cc1cc(NC(C)c2nncn2C2CCCC2)n2nc(C)c(C)c2n1 (configuration not stated) | 14.29 | -4.628 | 4.592
COc1ccc2nnc(CCCC(=O)NCCc3ccncc3)n2n1 | 20.65 | 9.317 | 8.111
CCc1ccc(S(=O)(=O)N2CCCC(c3ncc[nH]3)C2)s1 (configuration not stated) | 8.333 | 12.08 | 5.782
O=C(O)C(F)(F)F.[H][C@@]12CCN(Cc3ccccc3)[C@@]1([H])CC(=O)N2CCOC | - | 31.77 | -
Cc1cc(C(=O)N2CCOC[C@H](Oc3cccnc3)C2)c(C(F)(F)F)o1 | 2.778 | -18.34 | 1.129
Cc1cnn(CC2CCCN2C(=O)c2ccc(F)c(F)c2)c1 (configuration not stated) | 5.128 | 3.335 | 0.2681

4 of the entries, repeated:

| Compound | A | B | C |
|---|---|---|---|
| `C=C(C)COc1cccc(CNC(CC(C)C)c2ncnn2C)c1` (configuration not stated) | 12 | -32.23 | -1.568 |
| `Cc1noc(C2CCC3(CCN(C(=O)c4ccn(C)n4)CC3)O2)n1` (configuration not stated) | 15.28 | 8.125 | 0.9877 |
| `Cc1nn(C)cc1-c1cncn1CCc1ccc2c(c1)OCCO2` | 10 | - | 1.456 |
| `CCOC(=O)C1(Cc2ccc(Cl)cc2)CCN(Cc2ncc[nH]2)CC1` | 17.5 | 14.14 | 1.615 |

Data taken from ChEMBL document CHEMBL3988442, “University of Dundee, Small-Polar-MMV Screening Library” (2021).